Assay results as given in article PMC5672003.
Results are given in words; binding and its absence hold for the method and conditions named. Some binding calls cover weakened binding; strength is not graded here.

Biological target: T1, …1 (Arabidopsis (endogenous in leaves)) (UniProt P32961)
T1 sequence: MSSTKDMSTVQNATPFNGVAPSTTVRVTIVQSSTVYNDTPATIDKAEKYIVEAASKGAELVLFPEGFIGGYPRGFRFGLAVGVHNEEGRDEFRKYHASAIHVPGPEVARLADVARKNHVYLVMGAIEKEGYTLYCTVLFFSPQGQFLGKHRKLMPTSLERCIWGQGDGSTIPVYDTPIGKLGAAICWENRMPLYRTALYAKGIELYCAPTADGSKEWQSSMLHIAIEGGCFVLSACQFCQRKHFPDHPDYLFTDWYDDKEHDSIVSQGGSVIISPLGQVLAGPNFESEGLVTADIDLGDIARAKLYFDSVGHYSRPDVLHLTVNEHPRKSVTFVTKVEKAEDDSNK
Assay: SEC; protein correlation profiling: cholate-solubilized Arabidopsis leaf microsomal proteins on Superdex 200 10/300 GL or Superose 6 10 x 300 GL at 6 °C; 50 mM HEPES-KOH pH 7.8, 100 mM NaCl, 10 mM MgCl2, 5% glycerol, 0.1% sodium cholate; fractions quantified by label-free LC-MS/MS; two biological replicates

binding: binds
B1: NIT3 (enzyme, UniProt P46010 1-346)
chain: MSSTEEMSSVKNTTQVIGVDPSSTVRVTIVQSSTVYNDTPATLDKAEKFIVEAASKGAKLVLFPEAFIGGYPRGFRFGLAVGVHNEEGRDEFRNYHASAIKVPGPEVERLAELAGKNNVHLVMGAIEKDGYTLYCTALFFSPQGQFLGKHRKVMPTSLERCIWGQGDGSTIPVYDTPIGKIGAAICWENRMPLYRTALYAKGIEIYCAPTADYSLEWQASMIHIAVEGGCFVLSAHQFCKRREFPEHPDYLFNDIVDTKEHDPTVSGGGSVIISPLGKVLAGPNYESEGLVTADLDLGDIARAKLYFDVVGHYSKPDIFNLTVNEHPKKPVTFMTKVEKAEDESNK
